The subject of experiment [1] is ReNCell VM. Put plainly: neuronal differentiation score (DCX+ cell fraction vs untreated, manual image score) (score (-3 to 3)); higher = more neuronal differentiation. To be noted: 2 uM, 2 weeks.
Experiment [2] concerns ReNCell VM. As to the kind of experiment: dopaminergic neuron differentiation score (TH+ cell fraction vs untreated, manual image score) (score (0 to 3)); higher = more TH+ dopaminergic neuron differentiation. To be noted: 2 uM, 4 weeks, BDNF 10 ng/ml + GDNF 10 ng/ml.

These results are taken from the supplement of paper PMC4635364.

Structures are written as SMILES. Structures can show the parent of a compound that is named as a salt. Some of the results follow. This data set is noisy: repeats of one test often differ as much as different tests do.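 ReNCell VM, a human fetal ventral-midbrain neural progenitor line, was differentiated without mitogens. Blinded raters scored images stained for doublecortin (early neurons) or tyrosine hydroxylase (dopaminergic neurons) against untreated wells (0 = no change). Scores were averaged across repeats and both raters, and compounds averaging 2 or more were selected as hits for retesting.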

Take `CC(C(=O)O)c1ccc(N2Cc3ccccc3C2=O)cc1` (stereo not drawn) [Indoprofen]: the neuronal differentiation score in the experiment on ReNCell VM [1] (library: Prestwick) is inactive: 0. Besides, in the experiment with ReNCell VM [2] (library: Prestwick), the “dopaminergic neuron differentiation score” value was inactive: 0.

Turning to `O=S(=O)(c1cccc2cnccc12)N1CCCNCC1`, the neuronal differentiation score in the experiment on ReNCell VM [1] (library: Spectrum) was inactive: 0. Besides, in the experiment on ReNCell VM [2] (library: Spectrum), the “dopaminergic neuron differentiation score” value is inactive: 0.

With `O=C(c1ccc(OCCCc2c[nH]cn2)cc1)C1CC1` [Ciproxifan hydrochloride], the neuronal differentiation score in the experiment with ReNCell VM [1] (library: LOPAC) is inactive: 0. The “dopaminergic neuron differentiation score” value in the experiment with ReNCell VM [2] (library: LOPAC) is inactive: 0.

In the case of `CC1(O)CCC(C(C)(C)O)CC1` (stereo not drawn), the neuronal differentiation score with ReNCell VM [1] (library: Spectrum) was inactive: 0. Further, the “dopaminergic neuron differentiation score” value in the experiment with ReNCell VM [2] (library: Spectrum) is inactive: 0.

On to `CC(C)(C(=O)O)c1ccc(C(O)CCCN2CCC(C(O)(c3ccccc3)c3ccccc3)CC2)cc1` (stereo not drawn) [Fexofenadine HCl], for which, in the experiment with ReNCell VM [1] (library: Prestwick), the neuronal differentiation score is inactive: 0. The “dopaminergic neuron differentiation score” value in the experiment on ReNCell VM [2] (library: Prestwick) is inactive: 0.

Consider `CCCCCCCCCCCCCCCCCC(=O)NCC(COP(=O)([O-])OCC[N+](C)(C)C)OCC` (racemic) [rac-2-Ethoxy-3-octadecanamido-1-propylphosphocholine], for which, in the experiment on ReNCell VM [1] (library: LOPAC), the neuronal differentiation score was inactive: -3. Besides, the “dopaminergic neuron differentiation score” value in the experiment on ReNCell VM [2] (library: LOPAC) was inactive: 0.

Turning to `C1N2CN3CN1CN(C2)C3` [Methenamine], the neuronal differentiation score in the experiment with ReNCell VM [1] (library: Prestwick) was inactive: 0. The “dopaminergic neuron differentiation score” value with ReNCell VM [2] (library: Prestwick) is inactive: 0.

On to `O=C1C(O)=C([C@H]2CC[C@H](c3ccc(Cl)cc3)CC2)C(=O)c2ccccc21` [Atovaquone], for which the neuronal differentiation score with ReNCell VM [1] (library: Prestwick) is inactive: 0. The “dopaminergic neuron differentiation score” value with ReNCell VM [2] (library: Prestwick) was inactive: 0.

As to `O=c1cc(N2CCOCC2)oc2c(-c3ccccc3)cccc12`, the neuronal differentiation score in the experiment on ReNCell VM [1] (library: Tocriscreen) was inactive: 0. For the same molecule, the “dopaminergic neuron differentiation score” value with ReNCell VM [2] (library: Tocriscreen) is inactive: 0.

Regarding `O=C1NCCN1CCN1CCC(c2cn(-c3ccc(F)cc3)c3ccc(Cl)cc23)CC1` [Sertindole], the neuronal differentiation score in the experiment on ReNCell VM [1] (library: Prestwick) was inactive: 0. In addition, in the experiment with ReNCell VM [2] (library: Prestwick), the “dopaminergic neuron differentiation score” value was inactive: 0.

In the case of `CC(C)=CCC1=C(O)C(=O)c2ccccc2C1=O` [Lapachol], in the experiment with ReNCell VM [1] (library: Phytochemical), the neuronal differentiation score is inactive: 0. For the same molecule, the “dopaminergic neuron differentiation score” value with ReNCell VM [2] (library: Phytochemical) was inactive: 0.

Regarding `COc1cccc2c1C(=O)c1c(O)c3c(c(O)c1C2=O)C[C@@](O)(C(C)=O)C[C@@H]3O[C@H]1C[C@H](N)[C@H](O)[C@H](C)O1`, the neuronal differentiation score in the experiment with ReNCell VM [1] (library: Spectrum) was inactive: 0. Moreover, the “dopaminergic neuron differentiation score” value in the experiment with ReNCell VM [2] (library: Spectrum) was inactive: 0.

As to `CN1C(=O)CC(C)(c2ccccc2)C1=O` (stereo not drawn), the neuronal differentiation score with ReNCell VM [1] (library: Spectrum) was inactive: 0. Besides, the “dopaminergic neuron differentiation score” value in the experiment on ReNCell VM [2] (library: Spectrum) is inactive: 0.

Consider `Cc1ccc(OCC(O)C(C)NC(C)C)c2c1CCC2` (stereo not drawn) [ICI-118,551 hydrochloride], for which the neuronal differentiation score in the experiment with ReNCell VM [1] (library: Tocriscreen) is inactive: 0. In addition, the “dopaminergic neuron differentiation score” value with ReNCell VM [2] (library: Tocriscreen) was inactive: 0.

Turning to `Cc1cc(=O)oc2cc(O)ccc12` [Hymecromone], the neuronal differentiation score in the experiment with ReNCell VM [1] (library: Prestwick) was inactive: 0. Also, the “dopaminergic neuron differentiation score” value in the experiment on ReNCell VM [2] (library: Prestwick) is inactive: 0.

As to `CC[C@H]1OC(=O)[C@H](C)[C@@H](O[C@H]2C[C@@](C)(OC)[C@@H](O)[C@H](C)O2)[C@H](C)[C@@H](O[C@@H]2O[C@H](C)C[C@H](N(C)C)[C@H]2O)[C@](C)(O)C[C@@H](C)[C@@H]2N[C@@H](COCCOC)O[C@H]([C@H]2C)[C@]1(C)O`, the neuronal differentiation score with ReNCell VM [1] (library: Spectrum) is inactive: 1. In the experiment with ReNCell VM [2] (library: Spectrum), the “dopaminergic neuron differentiation score” value is inactive: 0.

For `O=C1C2CC3CC1CC(O)(C3)C2`, in the experiment on ReNCell VM [1] (library: Spectrum), the neuronal differentiation score was inactive: 0. Besides, the “dopaminergic neuron differentiation score” value with ReNCell VM [2] (library: Spectrum) was inactive: 0.

As to `CCOC(=O)C1=C(COCCN)NC(C)=C(C(=O)OC)C1c1ccccc1Cl` (stereo not drawn) [Amlodipine besylate], in the experiment on ReNCell VM [1] (library: Tocriscreen), the neuronal differentiation score was inactive: 0. The “dopaminergic neuron differentiation score” value in the experiment on ReNCell VM [2] (library: Tocriscreen) was inactive: 0.

As for `COc1ccc2c(c1)OC/C(=C\c1ccc(OC)c(O)c1)C2=O`, the neuronal differentiation score with ReNCell VM [1] (library: Spectrum) was inactive: 0. Further, in the experiment on ReNCell VM [2] (library: Spectrum), the “dopaminergic neuron differentiation score” value is inactive: 0.

Consider `CN/C(=N\CCSCc1nc[nH]c1C)NC#N`, for which the neuronal differentiation score in the experiment on ReNCell VM [1] (library: Spectrum) is inactive: 0. Besides, in the experiment with ReNCell VM [2] (library: Spectrum), the “dopaminergic neuron differentiation score” value was inactive: 0.

With `N=C(N)NC(=O)c1nc(Cl)c(N)nc1N` [Amiloride hydrochloride dihydrate], the neuronal differentiation score in the experiment with ReNCell VM [1] (library: Prestwick) was inactive: 0. The “dopaminergic neuron differentiation score” value with ReNCell VM [2] (library: Prestwick) was inactive: 0.

With `O=C(NCCO[N+](=O)[O-])c1cccnc1`, the neuronal differentiation score in the experiment with ReNCell VM [1] (library: Spectrum) was inactive: 0. Also, the “dopaminergic neuron differentiation score” value in the experiment with ReNCell VM [2] (library: Spectrum) was inactive: 0.

Turning to `c1ccc(C(NCCNC(c2ccccc2)c2ccccc2)c2ccccc2)cc1`, the neuronal differentiation score with ReNCell VM [1] (library: LOPAC) is inactive: 0. For the same molecule, the “dopaminergic neuron differentiation score” value with ReNCell VM [2] (library: LOPAC) was inactive: 0.

`COc1cc(C2Oc3cc([C@H]4Oc5cc(O)cc(O)c5C(=O)[C@@H]4O)ccc3OC2CO)ccc1O` (stereo partly drawn): the neuronal differentiation score in the experiment on ReNCell VM [1] (library: Spectrum) was inactive: 0. Also, the “dopaminergic neuron differentiation score” value in the experiment with ReNCell VM [2] (library: Spectrum) was inactive: 0.

In the case of `CC(=O)NC[C@H]1CN(c2ccc(N3CCOCC3)c(F)c2)C(=O)O1` [Linezolid], the neuronal differentiation score in the experiment on ReNCell VM [1] (library: Prestwick) was inactive: 0. Also, in the experiment on ReNCell VM [2] (library: Prestwick), the “dopaminergic neuron differentiation score” value is inactive: 0.

Take `Nc1nc(Cl)nc2c1ncn2[C@@H]1O[C@H](CO)[C@@H](O)[C@@H]1F`: in the experiment on ReNCell VM [1] (library: Spectrum), the neuronal differentiation score is inactive: 0. The “dopaminergic neuron differentiation score” value in the experiment on ReNCell VM [2] (library: Spectrum) is inactive: 0.

As for `CCOc1ccc2ccccc2c1C(=O)N[C@@H]1C(=O)N2[C@@H]1SC(C)(C)[C@@H]2C(=O)O`, the neuronal differentiation score in the experiment with ReNCell VM [1] (library: Spectrum) was inactive: 0. Also, in the experiment on ReNCell VM [2] (library: Spectrum), the “dopaminergic neuron differentiation score” value is inactive: 0.

Consider `OC(CCN1CCCCC1)(c1ccccc1)C1CCCCC1` (stereo not drawn) [Trihexyphenidyl-D,L Hydrochloride], for which the neuronal differentiation score in the experiment on ReNCell VM [1] (library: Prestwick) was inactive: 0. Also, in the experiment on ReNCell VM [2] (library: Prestwick), the “dopaminergic neuron differentiation score” value is inactive: 0.

Regarding `CCN(CC)C(=O)c1ccc(O)c(OC)c1`, the neuronal differentiation score in the experiment with ReNCell VM [1] (library: Spectrum) was inactive: 0. Further, in the experiment on ReNCell VM [2] (library: Spectrum), the “dopaminergic neuron differentiation score” value is inactive: 0.

`OC(c1cc(C(F)(F)F)nc2c(C(F)(F)F)cccc12)C1CCCCN1` (stereo not drawn) [Mefloquine hydrochloride]: in the experiment on ReNCell VM [1] (library: Prestwick), the neuronal differentiation score was inactive: 0. For the same molecule, the “dopaminergic neuron differentiation score” value with ReNCell VM [2] (library: Prestwick) was inactive: 0.

Regarding `C=CC(C1=CC(=O)C=CC1=O)c1ccccc1` (stereo not drawn), in the experiment with ReNCell VM [1] (library: Spectrum), the neuronal differentiation score is inactive: 0. In the experiment with ReNCell VM [2] (library: Spectrum), the “dopaminergic neuron differentiation score” value was inactive: 0.

For the molecule `C[n+]1cccc(C(=O)[O-])c1` [Trigonelline hydrochloride], in the experiment with ReNCell VM [1] (library: Phytochemical), the neuronal differentiation score was inactive: 0. The “dopaminergic neuron differentiation score” value with ReNCell VM [2] (library: Phytochemical) was inactive: 0.

With `COC(=O)C1=C(C)NC(C)=C([N+](=O)[O-])[C@H]1c1ccccc1C(F)(F)F`, the neuronal differentiation score with ReNCell VM [1] (library: Tocriscreen) is inactive: 0. The “dopaminergic neuron differentiation score” value in the experiment with ReNCell VM [2] (library: Tocriscreen) is inactive: 0.

As for `C=C1c2cccc(O)c2C(=O)C2=C(O)[C@]3(O)C(=O)C(C(N)=O)=C(O)[C@@H](N(C)C)[C@@H]3[C@@H](O)[C@H]12` [Methacycline hydrochloride], the neuronal differentiation score in the experiment with ReNCell VM [1] (library: Prestwick) is inactive: 0. In the experiment with ReNCell VM [2] (library: Prestwick), the “dopaminergic neuron differentiation score” value was inactive: 0.
